# Measurements reported in publication PMC8621254.
# Chains of the proteins cited; added tags and fusions are not shown. A line that says so, or that is headed by a name, gives the form on record, which may keep a tag or linker.
# UniProt P08047, whole entry: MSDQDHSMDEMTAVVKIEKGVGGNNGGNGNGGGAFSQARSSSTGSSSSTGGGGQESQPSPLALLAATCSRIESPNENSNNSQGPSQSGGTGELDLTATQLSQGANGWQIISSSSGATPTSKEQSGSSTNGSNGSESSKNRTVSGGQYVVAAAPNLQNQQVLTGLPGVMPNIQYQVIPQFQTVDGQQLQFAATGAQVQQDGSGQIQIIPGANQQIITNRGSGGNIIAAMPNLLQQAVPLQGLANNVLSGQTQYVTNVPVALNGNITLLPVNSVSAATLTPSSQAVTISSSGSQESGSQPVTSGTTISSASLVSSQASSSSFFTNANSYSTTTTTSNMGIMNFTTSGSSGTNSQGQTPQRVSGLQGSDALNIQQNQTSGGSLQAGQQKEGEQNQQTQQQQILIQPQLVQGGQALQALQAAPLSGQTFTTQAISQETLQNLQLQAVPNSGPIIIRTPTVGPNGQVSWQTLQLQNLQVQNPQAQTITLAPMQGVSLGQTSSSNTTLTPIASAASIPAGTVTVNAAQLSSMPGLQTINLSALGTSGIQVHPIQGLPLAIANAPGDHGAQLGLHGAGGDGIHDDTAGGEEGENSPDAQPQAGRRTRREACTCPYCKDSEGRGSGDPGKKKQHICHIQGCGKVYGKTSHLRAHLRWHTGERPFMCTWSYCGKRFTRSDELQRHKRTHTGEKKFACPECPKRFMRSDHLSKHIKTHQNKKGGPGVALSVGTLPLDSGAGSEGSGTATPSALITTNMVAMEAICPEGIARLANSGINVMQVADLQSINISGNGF
# AP-1 (c-Fos/c-Jun) (Homo sapiens), one chain, as listed by the source, chain 2 of 2: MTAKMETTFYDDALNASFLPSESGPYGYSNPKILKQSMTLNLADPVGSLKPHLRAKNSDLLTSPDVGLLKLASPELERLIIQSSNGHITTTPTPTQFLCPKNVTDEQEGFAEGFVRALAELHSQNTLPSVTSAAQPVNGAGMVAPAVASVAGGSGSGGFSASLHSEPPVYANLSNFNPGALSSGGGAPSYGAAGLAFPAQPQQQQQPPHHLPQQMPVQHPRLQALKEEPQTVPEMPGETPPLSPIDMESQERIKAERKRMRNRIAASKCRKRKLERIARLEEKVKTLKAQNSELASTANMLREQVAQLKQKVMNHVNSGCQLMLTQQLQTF
# AP-1 (c-Fos/c-Jun) (Homo sapiens), one chain, as listed by the source, chain 1 of 2: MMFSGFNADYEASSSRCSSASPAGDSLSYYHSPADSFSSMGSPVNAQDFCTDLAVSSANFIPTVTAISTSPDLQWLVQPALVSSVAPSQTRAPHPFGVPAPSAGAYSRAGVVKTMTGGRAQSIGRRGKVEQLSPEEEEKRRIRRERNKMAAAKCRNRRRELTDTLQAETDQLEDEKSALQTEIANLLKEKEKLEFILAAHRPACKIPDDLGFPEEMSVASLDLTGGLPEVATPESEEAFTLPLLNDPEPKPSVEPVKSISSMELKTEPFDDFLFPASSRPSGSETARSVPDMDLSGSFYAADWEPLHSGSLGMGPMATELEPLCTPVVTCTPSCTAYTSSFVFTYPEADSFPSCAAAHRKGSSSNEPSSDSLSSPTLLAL
# Construct, isoform or probe ends are uncertain for at least one entry. Results from cells or extracts need not show a direct contact. For some of these results: A negative result means that nothing was seen under these conditions.
# How the values were obtained:
# [1] = tested on: Sp1 + Sp3; assay: competition with a labelled probe; details: 15 ug hCEC nuclear extract, 0.5 ug poly(dI:dC), 50 mM KCl, 10 mM Hepes pH 7.9, 10% glycerol, 0.1 mM EDTA, 0.5 mM DTT, 0.25 mM PMSF, 6% native gel in Tris-glycine, 4 C, protein in an extract
# [2] = tested on: AP-1 (c-Fos/c-Jun) (Homo sapiens); assay: competition with a labelled probe; details: 15 ug hCEC nuclear extract, 0.5 ug poly(dI:dC), 50 mM KCl, 10 mM Hepes pH 7.9, 10% glycerol, 0.1 mM EDTA, 0.5 mM DTT, 0.25 mM PMSF, 6% native gel in Tris-glycine, 4 C, protein in an extract
# [3] = tested on: Sp1 + Sp3; assay: EMSA; details: labeled Sp1/3 probe, self-competition complete at 500-fold; 15 ug hCEC nuclear extract, 0.5 ug poly(dI:dC), 50 mM KCl, 10 mM Hepes pH 7.9, 10% glycerol, 0.1 mM EDTA, 0.5 mM DTT, 0.25 mM PMSF; 6% native gel in Tris-glycine, 4 C; protein in an extract; label: 5'-32P when used as probe
# [4] = target: Sp1 (Homo sapiens) (UniProt P08047); assay: EMSA supershift; details: Sp1 antibody; 15 ug hCEC nuclear extract, 0.5 ug poly(dI:dC), 50 mM KCl, 10 mM Hepes pH 7.9, 10% glycerol, 0.1 mM EDTA, 0.5 mM DTT, 0.25 mM PMSF; 6% native gel in Tris-glycine, 4 C; protein in an extract; label: 5'-32P when used as probe
# [5] = tested on: Sp1 + Sp3; assay: EMSA supershift; details: Sp1 and Sp3 antibodies combined; 15 ug hCEC nuclear extract, 0.5 ug poly(dI:dC), 50 mM KCl, 10 mM Hepes pH 7.9, 10% glycerol, 0.1 mM EDTA, 0.5 mM DTT, 0.25 mM PMSF; 6% native gel in Tris-glycine, 4 C; protein in an extract; label: 5'-32P when used as probe
# [6] = tested on: AP-1 (c-Fos/c-Jun) (Homo sapiens); assay: EMSA supershift; details: c-Fos/c-Jun antibodies; 15 ug hCEC nuclear extract, 0.5 ug poly(dI:dC), 50 mM KCl, 10 mM Hepes pH 7.9, 10% glycerol, 0.1 mM EDTA, 0.5 mM DTT, 0.25 mM PMSF; 6% native gel in Tris-glycine, 4 C; protein in an extract; label: 5'-32P when used as probe
# [7] = tested on: AP-1 (c-Fos/c-Jun) (Homo sapiens); assay: EMSA; details: labeled AP-1 probe, self-competition at 500-fold; 15 ug hCEC nuclear extract, 0.5 ug poly(dI:dC), 50 mM KCl, 10 mM Hepes pH 7.9, 10% glycerol, 0.1 mM EDTA, 0.5 mM DTT, 0.25 mM PMSF; 6% native gel in Tris-glycine, 4 C; protein in an extract; label: 5'-32P when used as probe
# [8] = labeled CLU -203/-153, 500-fold
sequence,measurement,setting,value
TTATTTTGGATTGAAGCCAATATGAG (double strand) [NFI],binding result,[1]; [8],no binding
same,binding result,[2]; [8],no binding
GATCATATCTGCGGGGCGGGGCAGAC / GATCCTGTGTCTGCCCCGCCCCGCAG [Sp1/3 consensus],binding result,"[1]; labeled CLU -203/-153, removes complexes a and c, label: 5'-32P when used as probe",binds
same,binding result,"[2]; labeled CLU -203/-153, AP-1 complex increased (unwounded extract), label: 5'-32P when used as probe",no binding
same,binding result,[3],binds
GATCCGGCATTCTTTTTTTTTGAGTCATGCAGGTTTGCAGCCAGCCCCAAAGGGG / GATCCCCCCTTTGGGGCTGGCTGCAAACCTGCATGACTCAAAAAAAAAGAATGCC [CLU -203/-153 Mutant 2],binding result,"[1]; labeled Sp1/3 probe, no competition up to 750-fold",no binding
same,binding result,"[2]; labeled AP-1 probe, as efficient as AP-1 consensus",binds
GATCCGGCATTCTTTGGGCGTGAGTCATGCAGGTTTGCAGCCAGCCCCAAAGGGG / GATCCCCCCTTTGGGGCTGGCTGCAAACCTGCATGACTCACGCCCAAAGAATGCC [CLU -203/-153],binding result,"[1]; labeled Sp1/3 probe, as efficient as Sp1/3 consensus, label: 5'-32P when used as probe",binds
same,binding result,"[2]; labeled AP-1 probe, label: 5'-32P when used as probe",binds
same,binding result,[4],binds
same,binding result,[5],binds
same,binding result,[6],binds
GATCCGGCATTCTTTGGGCGTGAGTCATGCAGGTTTGCATTTAGTTTCAAAGGGG / GATCCCCCCTTTGAAACTAAATGCAAACCTGCATGACTCACGCCCAAAGAATGCC [CLU -203/-153 Mutant 1],binding result,"[1]; labeled Sp1/3 probe, as effective as wild type",binds
GATCCCCGCGTTGAGTCATTCGCCTC / GATCGAGGCGAATGACTCAACGCGGG [AP1 consensus],binding result,"[1]; labeled CLU -203/-153, Sp1/Sp3 complexes unaffected, label: 5'-32P when used as probe",no binding
same,binding result,"[2]; labeled CLU -203/-153, removes complex b at 500-fold, label: 5'-32P when used as probe",binds
same,binding result,[7],binds
